Values of other authors, collected in patent US20090123956A1, “Measurement of the oxidants-antioxidants balance in liquids” (Samsung Electronics Co., Ltd., priority 2006, published 2009).
For at least one compound, name, drawing or mass did not settle the structure.

Conditions: change in absorbance at 450 nm (reference 620 or 570 nm) at equivalent molar concentration, uric acid = 1

C=CC1=C(C)/C(=C/c2[nH]c(Cc3[nH]c(/C=C4\NC(=O)C(C)=C4C=C)c(C)c3CCC(=O)O)c(CCC(=O)O)c2C)NC1=O [bilirubin]
relative activity in compare with uric acid: ~2
